In PubChem BioAssay AID1487 (National Center for Advancing Translational Sciences (NCATS), 2009):
Out of some 200,000 compounds screened, about 25 (0.01%) were called active. The shares of active, inactive and inconclusive entries below differ from those in the screen. Calls come from the whole dose curve; as a rule, active = well fitted inhibition curve with a large enough effect in the signal ratio, with a control signal flat (not every such curve was filed as active); inconclusive = small, poorly fitted or top-dose-only effect, or effect the other way, or a change in a side signal; inactive = flat fitted curve, though single readings scatter; the % refers to the signal ratio. Potencies beside an inconclusive call are fits to weak or partial responses and may not hold up.

Experiment: qHTS Assay for Modulators of Lamin A Splicing
Conditions: HeLa LMNA splicing GFP/RFP minigene ratio, 48 h; ratio change, negative = inhibition: at 46.1 µM (top of the series) unless noted
Outline: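 S3 HeLa stable clones carrying a lamin A-EGFP splicing minigene plus DsRed2 were seeded at 600 cells/well in Opti-MEM with 2% FBS, pin-dosed and incubated 48 h at 37°C. Acumen cytometry (488 nm) gave the GFP/RFP total-intensity ratio.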
% is set by controls: 0 for no effect and ±100 for the full control effect; potency is the fitted concentration of half-maximal effect.

Row | SMILES | ratio change, negative = inhibition | Potency
1 | Cc1cc(OCC(=O)OC(C)(C)C)c2c3c(c(=O)oc2c1)CCC3 | inactive | 
2 | NCCCC(=O)OC1N=C(c2ccccc2Cl)c2cc(Br)ccc2NC1=O (stereo not drawn) | inconclusive: -34.3% [at 46 µM] | 
3 | O=c1c2ccccc2ncn1-c1ccc([N+](=O)[O-])c(C(F)(F)F)c1 | inactive | 
4 | Clc1ccc2c(c1)C(c1ccccc1Cl)=NCc1nncn1-2 | inactive | 
5 | Cc1c(N=Cc2c(O)n(CCc3ccc(F)cc3)c(=O)[nH]c2=O)c(=O)n(-c2ccccc2)n1C | inactive | 
6 | O=C(/C=C/c1ccccc1)c1c(O)n(CCc2ccccc2)c(=O)[nH]c1=O |  | inconclusive: 3.98 µM [falling, full curve]
7 | O=C(c1cc2c(s1)-c1ccccc1OC2)N1CCC2(CC1)OCCO2 |  | inconclusive: 12.6 µM [falling, partial curve, poor fit]
8 | O=C(OCc1cc(=O)n2nc(C3CC3)sc2n1)c1ccc(NC(=O)c2ccccc2Cl)cc1 |  | inconclusive: 2.51 µM [inhibitor, full curve, poor fit]
9 | Oc1ccc2c3c1O[C@H]1c4[nH]c5ccccc5c4C[C@@]4(O)C(C2)N(CC2CC2)CCC314 (stereo partly drawn) | inconclusive: -32% | 
10 | CCOc1ccc(N=C2SCCCN2C)cc1 | inactive | 
11 | CC(C)[C@@]1(NC(=O)[C@@H]2C[C@@H]3c4cccc5[nH]cc(c45)C[C@H]3N(C)C2)O[C@@]2(O)[C@@H]3CCCN3C(=O)[C@H](Cc3ccccc3)N2C1=O | inactive | 
12 | CCN1C[C@]2(C)CC[C@H](O)[C@@]34[C@@H]5C[C@@H]6[C@@H](OC)C[C@@](O)(C5[C@H]6O)[C@@H](C[C@@H]23)[C@@H]14 | inconclusive: -13.3% | 
13 | NC(=O)c1ccc(OCC(O)CN2CC=C(c3ccc(F)cc3)CC2)cc1 (stereo not drawn) | inconclusive: -13.9% | 
14 | COc1cccc(C2(C#N)CCN(C)CC2)c1 | inconclusive: 20.6% [at 9.22 µM] | 
15 | COC(=O)c1ccccc1OP1(=O)COc2ccccc2OC1 | inactive | 
16 | C=CCN1C(=O)NC(=O)/C(=C/C=C/c2ccccc2)C1=O | inconclusive: -22.3% [at 46 µM] | 
17 | Cc1ccccc1C(=O)Nc1ccc(C(=O)OCc2cc(=O)n3nc(C4CC4)sc3n2)cc1 |  | inconclusive: 2.51 µM [inhibitor, full curve]
18 | CCOC(=O)C1CCN(/C=C2/C(=O)NC(=S)N(c3cccc(OC)c3)C2=O)CC1 | inconclusive: 25.9% [at 46 µM] | 
19 | CCOC(=O)c1c(-n2c(C)cc(C=C3C(=O)NC(=S)NC3=O)c2C)sc2c1CCCC2 |  | inconclusive: 28.2 µM [inhibitor, single point]
20 | COc1ccc(N2C(=O)NC(=O)/C(=C\c3ccccc3[N+](=O)[O-])C2=O)cc1 | inactive | 
21 | O=Cc1cn(CCCOc2ccccc2)c2ccccc12 |  | inconclusive: 35.5 µM [fluorescent, single point]
22 | CO[C@H]1CC=C2CCN3CCC4=C(CC(=O)OC4)[C@]23C1 | inconclusive: -6.03% | 
23 | CN(C)c1ccc(C=C(C#N)C#N)cc1 | inactive | 
24 | C[C@]12CCC(=O)C=C1CC[C@@H]1[C@@H]2C(=O)C[C@]2(C)C(=O)CC[C@@H]12 | inconclusive: -0.119% | 

Row | SMILES | ratio change, negative = inhibition | Potency
25 | COc1cc(C=C(C#N)C#N)cc(O)c1O |  | inconclusive: 35.5 µM [inhibitor, single point]
26 | CN(C)C(=O)C(CCN1CCC(O)(c2ccc(Cl)cc2)CC1)(c1ccccc1)c1ccccc1 | inconclusive: -25.1% | 
27 | O=C1CC(=O)N(Cc2ccccc2)C(=O)N1CCCCCCN1C(=O)CC(=O)N(Cc2ccccc2)C1=O | inconclusive: -12% [at 46 µM] | 
28 | C/C=C1/CC(C)C(C)(O)C(=O)OCC2CCN3CCC(OC1=O)C23 (stereo not drawn) | inconclusive: 2.01% [at 46 µM] | 
29 | CCOC(=O)C1(CCCc2ccccc2)CCN(C2CCCC2)CC1 |  | inconclusive: 11.2 µM [falling, partial curve]
30 | ON1C2CCCCC2N(O)C1c1ccccc1F (stereo not drawn) | inactive | 
31 | Cc1nc2ccccc2c(=O)n1-c1cccc(O)c1 | inactive | 
32 | COc1ccc(-n2nc(C(F)(F)F)cc2-c2ccc(Cl)cc2)cc1 | inconclusive: -37.3% | 
33 | COc1ccc(Cn2c(N)c(C(=O)NCc3ccco3)c3nc4ccccc4nc32)cc1 | inconclusive: 27.1% | 
34 | O=c1[nH]c(=S)n(C2CC2)c(O)c1/C=N/N1CCOCC1 | inconclusive: -7.12% | 
35 | NCC(O)c1cc(O)c(O)cc1F (stereo not drawn) | inconclusive: -17.4% | 
36 | CC[C@]1([C@H]2O[C@@H]([C@@H]3O[C@](O)(CO)[C@@H](C)C[C@H]3C)C[C@H]2C)CC[C@@H]([C@]2(C)CC[C@@]3(C[C@@H](O)[C@@H](C)[C@@H]([C@H](C)[C@H](OC)[C@H](C)C(=O)O)O3)O2)O1 |  | inconclusive: 0.447 µM [cytotoxic, full curve, poor fit]
37 | C[N+]1(C)[C@@H]2CC[C@H]1CC(OC(=O)[C@@H](CO)c1ccccc1)C2 (stereo partly drawn) | inconclusive: -11% | 
38 | COc1cc(CN2CCCC(C(=O)c3sccc3C)C2)cc(Cl)c1O (stereo not drawn) | inconclusive: -1.11% [at 46 µM] | 
39 | COc1ccc(C(=O)N2CCCC2=O)cc1 | inconclusive: 37.2% [at 46 µM] | 
40 | CC(/C=C(\C)Nc1ccccc1)=Nc1ccccc1 | inactive | 
41 | CC(C)CN1CCN(Cc2ccccc2C(F)(F)F)CC1CCO (stereo not drawn) | inconclusive: -7.75% [at 46 µM] | 
42 | O=Cc1cn(Cc2ccc([N+](=O)[O-])cc2)c2ccccc12 | inconclusive: -41.8% | 
43 | COP(=S)(OC)Oc1ccc(SC)c(C)c1 | inconclusive: -6.07% | 
44 | CN1C2CCC1/C(=C/c1ccccn1)C(=O)/C2=C\c1ccccn1 | inconclusive: -20.7% | 
45 | O=c1[nH]c2ccccc2n1CCCN1CCC(n2c(=O)[nH]c3cc(Cl)ccc32)CC1 | inconclusive: -15.2% | inconclusive: 0.0008 µM [inhibitor, full curve, poor fit]
46 | COc1ccc2c(c1)C13CCCCC1C(C2)N(C)CC3 (stereo not drawn) | inconclusive: -21.5% | 
47 | CCC(C)NC(=O)CN1C(=O)CN=C(c2ccccc2)c2ccccc21 (stereo not drawn) | inconclusive: 16.4% [at 46 µM] | 

Ten entries from above in a different format:
Row,SMILES,"ratio change, negative = inhibition",Potency
29,CCOC(=O)C1(CCCc2ccccc2)CCN(C2CCCC2)CC1,,"inconclusive: 11.2 µM [falling, partial curve]"
30,ON1C2CCCCC2N(O)C1c1ccccc1F (stereo not drawn),inactive,
31,Cc1nc2ccccc2c(=O)n1-c1cccc(O)c1,inactive,
32,COc1ccc(-n2nc(C(F)(F)F)cc2-c2ccc(Cl)cc2)cc1,inconclusive: -37.3%,
33,COc1ccc(Cn2c(N)c(C(=O)NCc3ccco3)c3nc4ccccc4nc32)cc1,inconclusive: 27.1%,
34,O=c1[nH]c(=S)n(C2CC2)c(O)c1/C=N/N1CCOCC1,inconclusive: -7.12%,
35,NCC(O)c1cc(O)c(O)cc1F (stereo not drawn),inconclusive: -17.4%,
36,CC[C@]1([C@H]2O[C@@H]([C@@H]3O[C@](O)(CO)[C@@H](C)C[C@H]3C)C[C@H]2C)CC[C@@H]([C@]2(C)CC[C@@]3(C[C@@H](O)[C@@H](C)[C@@H]([C@H](C)[C@H](OC)[C@H](C)C(=O)O)O3)O2)O1,,"inconclusive: 0.447 µM [cytotoxic, full curve, poor fit]"
37,C[N+]1(C)[C@@H]2CC[C@H]1CC(OC(=O)[C@@H](CO)c1ccccc1)C2 (stereo partly drawn),inconclusive: -11%,
38,COc1cc(CN2CCCC(C(=O)c3sccc3C)C2)cc(Cl)c1O (stereo not drawn),inconclusive: -1.11% [at 46 µM],
